Assay results from patent US20230081195A1 (INSTITUTE OF GENETICS AND DEVELOPMENT BIOLOGY CHINESE …, published 2023).
No constants are given. Whether binding was seen depends on the method and setting. In cells and extracts the contact can be indirect. Some results given as binding are weak or reduced against the parent protein; the word gives no strength. Where a sequence is shown, tags or fusion partners need not be part of it.

T1: OML4-MYC (rice) (UniProt Q64M78)
T1 sequence: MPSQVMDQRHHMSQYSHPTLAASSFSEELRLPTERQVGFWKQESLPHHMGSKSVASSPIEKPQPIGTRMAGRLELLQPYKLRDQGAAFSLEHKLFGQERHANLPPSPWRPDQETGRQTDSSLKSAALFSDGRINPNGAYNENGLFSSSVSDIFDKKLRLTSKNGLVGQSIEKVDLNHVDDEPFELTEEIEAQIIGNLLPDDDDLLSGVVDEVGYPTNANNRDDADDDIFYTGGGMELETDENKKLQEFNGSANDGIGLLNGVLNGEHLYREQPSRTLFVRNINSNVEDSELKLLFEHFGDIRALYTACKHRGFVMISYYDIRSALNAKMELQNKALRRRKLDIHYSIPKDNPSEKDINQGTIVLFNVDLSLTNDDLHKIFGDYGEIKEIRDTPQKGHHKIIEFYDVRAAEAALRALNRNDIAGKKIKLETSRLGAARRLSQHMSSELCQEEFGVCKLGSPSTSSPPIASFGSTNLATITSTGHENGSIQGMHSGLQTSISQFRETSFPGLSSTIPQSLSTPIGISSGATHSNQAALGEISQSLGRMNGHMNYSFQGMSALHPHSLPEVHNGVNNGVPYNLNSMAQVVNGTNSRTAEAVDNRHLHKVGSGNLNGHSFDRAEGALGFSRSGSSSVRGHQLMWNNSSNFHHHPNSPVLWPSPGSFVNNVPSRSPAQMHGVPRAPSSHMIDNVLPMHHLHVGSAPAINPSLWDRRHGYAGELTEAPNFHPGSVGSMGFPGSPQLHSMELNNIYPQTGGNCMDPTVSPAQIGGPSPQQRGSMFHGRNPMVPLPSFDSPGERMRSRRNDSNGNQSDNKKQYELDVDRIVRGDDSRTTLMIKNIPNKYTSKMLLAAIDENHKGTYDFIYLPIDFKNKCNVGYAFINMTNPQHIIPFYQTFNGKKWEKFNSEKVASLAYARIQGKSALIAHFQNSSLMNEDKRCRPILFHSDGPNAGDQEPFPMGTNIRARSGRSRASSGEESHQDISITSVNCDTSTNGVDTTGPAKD

T2: GSK2-GST (rice) (UniProt Q60EZ2)
T2 sequence: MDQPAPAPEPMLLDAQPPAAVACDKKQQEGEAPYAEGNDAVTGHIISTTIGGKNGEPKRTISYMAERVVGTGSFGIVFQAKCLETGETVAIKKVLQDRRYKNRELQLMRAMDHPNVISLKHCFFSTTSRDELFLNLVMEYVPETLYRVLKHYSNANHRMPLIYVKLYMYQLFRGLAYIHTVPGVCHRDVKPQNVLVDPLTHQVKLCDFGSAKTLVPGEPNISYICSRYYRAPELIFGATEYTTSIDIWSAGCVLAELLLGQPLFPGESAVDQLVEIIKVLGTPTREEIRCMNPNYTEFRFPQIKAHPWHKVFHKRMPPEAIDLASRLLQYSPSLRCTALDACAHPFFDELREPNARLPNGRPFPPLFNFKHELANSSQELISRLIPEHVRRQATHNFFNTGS


How the values were obtained:
OML4-MYC (rice) [1] = biological target: T1, OML4-MYC (rice); assay: co-immunoprecipitation with MYC beads from N. benthamiana leaves, blots with anti-MYC and anti-GFP
OML4-MYC (rice) [2] = biological target: T1, OML4-MYC (rice); assay: co-immunoprecipitation with anti-MYC beads, blots with anti-MYC or anti-GFP
GSK2-GST (rice) [3] = biological target: T2, GSK2-GST (rice); assay: in vitro pull-down, GSK2-GST pulled down by OML4-MBP, immunoblot with anti-GST
GSK2-GST (rice) [4] = biological target: T2, GSK2-GST (rice); assay: in vitro pull-down on MBP beads, immunoblot with anti-GST

Binder	binding (OML4-MYC (rice) [1])	binding (OML4-MYC (rice) [2])	binding (GSK2-GST (rice) [3])	binding (GSK2-GST (rice) [4])
GSK2-GFP (enzyme, not shown: large carriers) MDQPAPAPEPMLLDAQPPAAVACDKKQQEGEAPYAEGNDAVTGHIISTTIGGKNGEPKRTISYMAERVVGTGSFGIVFQAKCLETGETVAIKKVLQDRRYKNRELQLMRAMDHPNVISLKHCFFSTTSRDELFLNLVMEYVPETLYRVLKHYSNANHRMPLIYVKLYMYQLFRGLAYIHTVPGVCHRDVKPQNVLVDPLTHQVKLCDFGSAKTLVPGEPNISYICSRYYRAPELIFGATEYTTSIDIWSAGCVLAELLLGQPLFPGESAVDQLVEIIKVLGTPTREEIRCMNPNYTEFRFPQIKAHPWHKVFHKRMPPEAIDLASRLLQYSPSLRCTALDACAHPFFDELREPNARLPNGRPFPPLFNFKHELANSSQELISRLIPEHVRRQATHNFFNTGS	binds	binds		
OML4-MBP (protein, not shown: large carriers) MPSQVMDQRHHMSQYSHPTLAASSFSEELRLPTERQVGFWKQESLPHHMGSKSVASSPIEKPQPIGTRMAGRLELLQPYKLRDQGAAFSLEHKLFGQERHANLPPSPWRPDQETGRQTDSSLKSAALFSDGRINPNGAYNENGLFSSSVSDIFDKKLRLTSKNGLVGQSIEKVDLNHVDDEPFELTEEIEAQIIGNLLPDDDDLLSGVVDEVGYPTNANNRDDADDDIFYTGGGMELETDENKKLQEFNGSANDGIGLLNGVLNGEHLYREQPSRTLFVRNINSNVEDSELKLLFEHFGDIRALYTACKHRGFVMISYYDIRSALNAKMELQNKALRRRKLDIHYSIPKDNPSEKDINQGTIVLFNVDLSLTNDDLHKIFGDYGEIKEIRDTPQKGHHKIIEFYDVRAAEAALRALNRNDIAGKKIKLETSRLGAARRLSQHMSSELCQEEFGVCKLGSPSTSSPPIASFGSTNLATITSTGHENGSIQGMHSGLQTSISQFRETSFPGLSSTIPQSLSTPIGISSGATHSNQAALGEISQSLGRMNGHMNYSFQGMSALHPHSLPEVHNGVNNGVPYNLNSMAQVVNGTNSRTAEAVDNRHLHKVGSGNLNGHSFDRAEGALGFSRSGSSSVRGHQLMWNNSSNFHHHPNSPVLWPSPGSFVNNVPSRSPAQMHGVPRAPSSHMIDNVLPMHHLHVGSAPAINPSLWDRRHGYAGELTEAPNFHPGSVGSMGFPGSPQLHSMELNNIYPQTGGNCMDPTVSPAQIGGPSPQQRGSMFHGRNPMVPLPSFDSPGERMRSRRNDSNGNQSDNKKQYELDVDRIVRGDDSRTTLMIKNIPNKYTSKMLLAAIDENHKGTYDFIYLPIDFKNKCNVGYAFINMTNPQHIIPFYQTFNGKKWEKFNSEKVASLAYARIQGKSALIAHFQNSSLMNEDKRCRPILFHSDGPNAGDQEPFPMGTNIRARSGRSRASSGEESHQDISITSVNCDTSTNGVDTTGPAKD			binds	binds
